Measured values from paper PMC11310522.

Legend:
[1] = molecular target: MCA–II–b–TAPa (Arabidopsis thaliana); experiment: affinity purification with mass spectrometry; TAPa-tagged baits from four to five weeks-old Arabidopsis transgenic plants; extraction buffer 50 mM Tris-HCl pH 7.5, 150 mM NaCl, 10% glycerol, 0.1% Nonidet P-40; LC-MS/MS
[2] = molecular target: MCA–II–a–TAPa (Arabidopsis thaliana); experiment: as above

binding [1]: binds | binding [2]: binds
B1: AT5G45620–SS regulatory sub 13a (protein, UniProt Q8RWF0 1-386)
chain: MAALQYLESLKNTHPELGEWYNSLADLYQKKLWHQLTLKLEQFIALAVFQAGDALIQFYHNFITDFETKINLLKLAHFAVVVSRQYSEKEAAVSYLESVIEKLRATKEPRITEPIIYIETQKALFKLEQGDQKECKKILDDGKSSLDSMTDIDPSVYANFYWVSSQYHKCRQEFSDFYKSALLYLAYTSVEDLSESFKLDLAFDLSLSALLGENIYNFGELLAHPILKSLLGTNVEWLYHILQAFNHGDLVQYQELCRVHNASLIAQPALVENEKKLLEKINILCLIEIIFSRPAEDRTIPLSIIAERTKLSIEDVEHLLMKSLSVHLIEGIIDQVNGTIYVSWAQPRVLGIPQIKALRDQLDSWVDKVHTTLLSVEAETPDLVAA

Results are given in words; binding and its absence hold for the method and conditions named. In cells and extracts the contact can be indirect. A yes stands for co-enrichment or nearness to the bait. Other partners may have been found.
